In assay [1] the target is HA-tagged TurboID-DCAF15 (human) (UniProt Q66K64). As to the kind of experiment: proximity labelling; MV4-11 cells stably expressing HA-tagged TurboID-DCAF15, DMSO or 5 uM MLN4924 for 6 h, 50 uM biotin for final 2 h; streptavidin magnetic beads, NP-40 buffer; LC-MS/MS; n = 1 each.
In assay [2] the target is FLAG-tagged DCAF15 (DDB1- and Cul4-Associated Factor 15) (human) (UniProt Q66K64). As to the kind of experiment: affinity purification with mass spectrometry; FLAG-immunoprecipitants from HEK293T cells transiently over-expressing FLAG-DCAF15 against FLAG empty vector; NP-40 buffer; in-solution digestion, LC-MS/MS; n = 1 each.

Amino acid sequences for entries named in this document (tags omitted).
UniProt Q9Y4B6: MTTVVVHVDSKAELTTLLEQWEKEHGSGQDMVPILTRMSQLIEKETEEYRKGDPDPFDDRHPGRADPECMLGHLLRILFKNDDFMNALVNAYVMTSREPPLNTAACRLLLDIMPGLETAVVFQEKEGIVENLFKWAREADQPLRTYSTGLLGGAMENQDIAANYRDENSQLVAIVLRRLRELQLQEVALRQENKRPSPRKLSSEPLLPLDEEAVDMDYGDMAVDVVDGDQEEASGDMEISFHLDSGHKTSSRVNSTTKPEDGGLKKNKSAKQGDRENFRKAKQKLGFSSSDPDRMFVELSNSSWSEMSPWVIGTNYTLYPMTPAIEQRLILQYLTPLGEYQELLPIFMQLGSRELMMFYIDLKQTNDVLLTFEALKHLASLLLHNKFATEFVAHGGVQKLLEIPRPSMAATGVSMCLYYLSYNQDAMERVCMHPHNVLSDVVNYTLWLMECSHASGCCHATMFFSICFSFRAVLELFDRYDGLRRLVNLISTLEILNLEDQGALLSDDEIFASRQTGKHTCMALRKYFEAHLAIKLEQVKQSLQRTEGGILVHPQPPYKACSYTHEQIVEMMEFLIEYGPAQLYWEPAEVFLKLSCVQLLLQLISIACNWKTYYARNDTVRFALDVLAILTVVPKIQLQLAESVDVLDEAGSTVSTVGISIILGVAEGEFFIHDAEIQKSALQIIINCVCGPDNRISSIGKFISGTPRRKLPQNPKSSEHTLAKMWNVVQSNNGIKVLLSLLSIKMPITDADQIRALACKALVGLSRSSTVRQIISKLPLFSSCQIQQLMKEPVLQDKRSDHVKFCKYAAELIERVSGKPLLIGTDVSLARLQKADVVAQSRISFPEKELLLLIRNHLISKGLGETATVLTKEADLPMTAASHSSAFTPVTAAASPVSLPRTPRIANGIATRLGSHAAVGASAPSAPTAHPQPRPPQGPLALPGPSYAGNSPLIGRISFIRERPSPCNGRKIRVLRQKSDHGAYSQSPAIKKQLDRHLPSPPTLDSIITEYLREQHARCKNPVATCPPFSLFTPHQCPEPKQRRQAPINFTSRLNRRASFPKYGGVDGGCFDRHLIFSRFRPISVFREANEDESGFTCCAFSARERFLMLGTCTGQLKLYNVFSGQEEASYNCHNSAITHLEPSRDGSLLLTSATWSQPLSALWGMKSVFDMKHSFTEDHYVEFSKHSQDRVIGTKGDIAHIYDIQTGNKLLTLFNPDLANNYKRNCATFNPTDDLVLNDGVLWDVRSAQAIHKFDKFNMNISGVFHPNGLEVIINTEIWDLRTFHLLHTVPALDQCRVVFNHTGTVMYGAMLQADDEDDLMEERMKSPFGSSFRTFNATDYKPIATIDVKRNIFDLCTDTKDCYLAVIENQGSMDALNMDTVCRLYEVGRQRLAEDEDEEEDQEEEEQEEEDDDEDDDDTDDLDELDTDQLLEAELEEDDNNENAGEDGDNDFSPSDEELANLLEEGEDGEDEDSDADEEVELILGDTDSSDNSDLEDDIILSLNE

Results are given in words; binding and its absence hold for the method and conditions named. Binding seen in cells or lysates may run through a third protein. These calls come from enrichment with a bait or labelling near it, and not all partners need be listed.

Take VprBP (from UniProt Q9Y4B6 1-1507): the binding result in assay [1] and in assay [2] was “binds” each time.

These data come from PMC11222469.
